These are yes or no findings as the source states them, for the method shown. Some entries that bind do so weakly or less than the wild type.
Tests used:
BSA = BSA (UniProt P02769); assay: ELISA; VEGFR2 or BSA coated on a high-binding 96-well plate at 20 µg/ml in carbonate buffer overnight at 4°C, blocked with 1% BSA; Hsp20 at 1.2, 2.4 and 4.8 µg/ml in PBS, 2 h at room temperature; detected by anti-Hsp20 antibody and HRP secondary, read at 450 nm; both purified
purified VEGFR2 protein = purified VEGFR2 protein (UniProt P35968); assay: as above

Chains of the proteins cited; added tags and fusions are not shown. Residues count along the entry.
UniProt P02769, residues 25-607: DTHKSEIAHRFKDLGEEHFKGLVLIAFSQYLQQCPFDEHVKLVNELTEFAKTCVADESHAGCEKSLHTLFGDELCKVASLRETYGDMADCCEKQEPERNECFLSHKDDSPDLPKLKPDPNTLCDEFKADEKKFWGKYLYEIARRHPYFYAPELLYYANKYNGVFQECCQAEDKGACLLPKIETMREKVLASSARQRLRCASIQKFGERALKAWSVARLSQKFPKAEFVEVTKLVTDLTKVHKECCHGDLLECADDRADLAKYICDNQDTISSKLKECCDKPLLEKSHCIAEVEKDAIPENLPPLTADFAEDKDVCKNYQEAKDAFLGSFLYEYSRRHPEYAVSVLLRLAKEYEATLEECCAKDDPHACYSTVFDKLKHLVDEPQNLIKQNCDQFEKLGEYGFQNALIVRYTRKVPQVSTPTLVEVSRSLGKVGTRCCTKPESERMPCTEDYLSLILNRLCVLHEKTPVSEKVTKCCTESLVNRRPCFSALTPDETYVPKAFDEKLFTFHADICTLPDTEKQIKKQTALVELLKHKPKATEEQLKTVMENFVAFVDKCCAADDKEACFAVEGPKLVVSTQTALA
UniProt P35968, residues 20-764: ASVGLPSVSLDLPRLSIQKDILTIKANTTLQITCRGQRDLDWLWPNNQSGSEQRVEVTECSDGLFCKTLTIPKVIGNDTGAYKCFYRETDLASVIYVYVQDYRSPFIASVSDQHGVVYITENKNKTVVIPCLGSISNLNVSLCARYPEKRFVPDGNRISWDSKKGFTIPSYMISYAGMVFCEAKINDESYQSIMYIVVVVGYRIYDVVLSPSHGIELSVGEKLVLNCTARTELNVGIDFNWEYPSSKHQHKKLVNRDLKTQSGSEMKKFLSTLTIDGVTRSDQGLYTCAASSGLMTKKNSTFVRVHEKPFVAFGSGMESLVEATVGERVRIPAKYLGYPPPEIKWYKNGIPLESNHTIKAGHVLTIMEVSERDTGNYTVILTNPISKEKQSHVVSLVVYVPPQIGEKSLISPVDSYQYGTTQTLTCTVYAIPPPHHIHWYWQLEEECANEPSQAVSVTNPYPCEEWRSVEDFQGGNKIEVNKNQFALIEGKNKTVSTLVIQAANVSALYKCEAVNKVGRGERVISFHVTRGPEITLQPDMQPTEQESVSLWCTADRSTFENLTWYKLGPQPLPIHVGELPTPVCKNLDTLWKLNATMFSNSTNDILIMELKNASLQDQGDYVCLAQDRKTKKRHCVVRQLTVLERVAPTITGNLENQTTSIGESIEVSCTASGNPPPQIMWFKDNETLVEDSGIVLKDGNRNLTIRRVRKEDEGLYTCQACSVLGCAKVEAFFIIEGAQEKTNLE

binding (BSA): no binding (tested: 4.8 µg/ml)
binding (purified VEGFR2 protein): binds
B1: recombinant human Hsp20 protein (protein, UniProt O14558 1-160)
chain: MEIPVPVQPSWLRRASAPLPGLSAPGRLFDQRFGEGLLEAELAALCPTTLAPYYLRAPSVALPVAQVPTDPGHFSVLLDVKHFSPEEIAVKVVGEHVEVHARHEERPDEHGFVAREFHRRYRLPPGVDPAAVTSALSPEGVLSIQAAPASAQAPPPAAAK
